The whole screen tested about 310,000 compounds, of which about 17,000 (5.5%) were called active. Inconclusive results, whose numbers are uncertain, are shown with a selection of clear calls. The call rests on the fitted dose curve; in most records, active means well fitted inhibition curve with a large enough effect; inconclusive means small, poorly fitted or top-dose-only effect, or effect the other way; inactive means no such curve, though single readings can be large or run the other way. Where the call is inconclusive, the potency comes from a doubtful curve fit.
target: Nuclear receptor ROR-gamma (Mus musculus) (UniProt P51450); test: qHTS for inhibitors of ROR gamma transcriptional activity; details: Drosophila S2 Gal4-RORgamma UAS-luciferase reporter, 20 h; activity change, negative = inhibition: at 53.6 µM (top of the series); further: nearly all actives have a fitted effect of over 60% in size
Summary of the method: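 Compounds are pin-transferred onto Drosophila Schneider cells expressing a copper-inducible Gal4–ROR gamma transactivation domain fusion. After 1 hr, copper sulfate is added to 700 uM final; luciferase is read 20 hr later.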
On the % scale 0 is the no-effect control and ±100 the full control effect; potency means the concentration at half of the fitted maximal effect.

Chains of the proteins cited; added tags and fusions are not shown. Lines headed by an entry give the natural chain unless they say otherwise; changes in a name come on top.
UniProt P51450: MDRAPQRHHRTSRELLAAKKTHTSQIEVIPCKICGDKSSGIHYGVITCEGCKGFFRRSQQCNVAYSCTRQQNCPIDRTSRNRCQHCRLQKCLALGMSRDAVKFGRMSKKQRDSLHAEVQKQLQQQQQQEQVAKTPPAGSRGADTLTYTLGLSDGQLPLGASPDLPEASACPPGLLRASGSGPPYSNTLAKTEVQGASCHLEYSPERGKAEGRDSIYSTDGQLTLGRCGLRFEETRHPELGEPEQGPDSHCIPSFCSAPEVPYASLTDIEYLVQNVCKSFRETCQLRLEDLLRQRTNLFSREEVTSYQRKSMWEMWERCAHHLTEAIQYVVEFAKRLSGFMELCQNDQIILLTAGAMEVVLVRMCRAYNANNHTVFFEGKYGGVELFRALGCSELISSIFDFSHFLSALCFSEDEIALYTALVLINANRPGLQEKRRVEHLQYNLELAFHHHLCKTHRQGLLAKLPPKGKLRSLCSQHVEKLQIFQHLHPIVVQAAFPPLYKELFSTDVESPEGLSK

Row | SMILES | activity change, negative = inhibition | Potency
1 | COc1cc2nc(CN(C)Cc3ccc(OC)c(OC)c3OC)[nH]c(=O)c2cc1OC | inactive: -34.3% | –
2 | CCN(CC(=O)NC(C)C)Cc1nc2sc3c(c2c(=O)[nH]1)CCC3 | – | active: 1.12 µM
3 | CCOc1ccc(N(CC(=O)Nc2cccc(C)c2)S(C)(=O)=O)cc1 | – | inconclusive: 6.31 µM [activator, single point]
4 | O=c1c2c(-c3ccccc3)csc2ncn1/N=C/c1c2ccccc2cc2ccccc12 | inactive: 28.2% | –
5 | COc1ccc(-c2cn(-c3ccccc3)nc2CO)cc1 | – | inconclusive: 12.6 µM [activator, single point]
6 | O=C(NNC(=O)c1ccco1)Nc1ccccc1 | inactive: 6.3% | –
7 | O=C(Nc1cc(S(=O)(=O)N2CCCCC2)ccc1O)c1ccccc1NS(=O)(=O)c1ccc(F)c(F)c1 | – | inconclusive: 15.8 µM [activator, partial curve]
8 | COc1cc(C(=S)N2CCCC2)ccc1OCc1ccc(C)cc1 | – | inconclusive: 35.5 µM [inhibitor, single point]
9 | O=C(Nc1cccc(O)c1)c1cc(-c2ccc3c(c2)OCO3)on1 | – | active: 3.98 µM
10 | CCOC(=O)C1=C(C)OC(N)=C(C#N)C1c1cc2cc(C)ccc2nc1N1CCCCC1 (configuration not stated) | – | inconclusive: 31.6 µM [activator, single point]
11 | CCc1ccc2c(c1)C(c1ccncc1)=NNC(c1ccccc1)=N2 | – | inconclusive: 35.5 µM [inhibitor, single point]
12 | COc1cccc2cc(C(C)=O)oc12 | inactive: -14.1% | –
13 | N#Cc1nc(COc2ccccc2)oc1N1CCOCC1 | inactive: -14.1% | –
14 | CCc1nnc(NC(=O)c2cc(-c3ccncc3)nc3ccccc23)s1 | inactive: -4.2% | –
15 | Cc1ccc(-c2nc(SCC(=O)Nc3ccccc3OC(F)F)c3c(C)c(C(=O)O)sc3n2)cc1 | – | inconclusive: 10 µM [inhibitor, partial curve]
16 | COc1ccc(-c2csc(NC(=O)c3ccccc3NS(=O)(=O)c3ccc(F)c(F)c3)n2)cc1 | – | active: 5.62 µM
17 | COCCN(Cc1cc2ccc(C)c(C)c2nc1Cl)C(=O)N1CCOCC1 | – | inconclusive: 12.6 µM [activator, single point]
18 | CS(=O)(=O)N(CC(=O)NCc1ccccc1Cl)C1CCCCC1 | – | inconclusive: 11.2 µM [activator, partial curve, poor fit]
19 | Cc1sc(N2C(=O)C3C(C2=O)[C@H]2C=C[C@@H]3C2)c(C#N)c1C (some centres not stated) | inactive: 4.07% | –
20 | Cc1onc(-c2c(Cl)cccc2Cl)c1NC(=O)NNc1ccccc1 | inactive: 10.7% | –
21 | CCOc1ccc(S(=O)(=O)N/N=C2/CC(c3ccccc3)Oc3ccccc32)cc1 (configuration not stated) | – | inconclusive: 14.1 µM [activator, partial curve]
22 | c1ccc2c3c([nH]c2c1)[C@@H]1[C@H]2CC[C@H]([C@H]4CCCN[C@H]42)N1CC3 | inactive: -0.271% [at 16.9 µM] | –
23 | COc1cc2c(cc1OC)[C@H](C)N(CC1C(=O)O[C@@H]3C[C@@]4(C)CCC[C@H](C)[C@@]45OC5[C@H]13)CC2 (some centres not stated) | – | inconclusive: 14.1 µM [inhibitor, single point]
24 | O=C(NCC12CC3CC(CC(C3)C1)C2)c1nn2c(c1Cl)NC(c1ccco1)CC2C(F)(F)F (configuration not stated) | – | inconclusive: 35.5 µM [inhibitor, single point]

Retrieved by compound from the list above, three records:
Row | SMILES | activity change, negative = inhibition | Potency
20 | Cc1onc(-c2c(Cl)cccc2Cl)c1NC(=O)NNc1ccccc1 | inactive: 10.7% | –
3 | CCOc1ccc(N(CC(=O)Nc2cccc(C)c2)S(C)(=O)=O)cc1 | – | inconclusive: 6.31 µM [activator, single point]
13 | N#Cc1nc(COc2ccccc2)oc1N1CCOCC1 | inactive: -14.1% | –

Following part.

Row | SMILES | activity change, negative = inhibition | Potency
25 | C[C@@H](NC(=O)c1nc[nH]c1C(=O)N[C@@H](Cc1ccccc1)C(=O)OCc1ccccc1)c1ccccc1 | – | active: 5.62 µM
26 | CC(C)C(C)NC(=O)COc1ccc([N+](=O)[O-])cc1Cl (configuration not stated) | – | inconclusive: 6.31 µM [activator, partial curve, poor fit]
27 | Nc1nc(Cl)cc(N2CCC(c3cc(-c4ccc(Cl)cc4)n[nH]3)CC2)n1 | – | inconclusive: 35.5 µM [inhibitor, single point]
28 | O=C1c2ccc3c4c(ccc(c24)C(=O)N1c1ccc(O)cc1)C(=O)N(c1ccc(O)cc1)C3=O | – | inconclusive: 1.58 µM [inhibitor, partial curve]
29 | C/C(=N\Nc1ncnc2sc(C)c(C)c12)c1ccccn1 | – | active: 0.398 µM
30 | C[C@H](NC(=O)c1nc[nH]c1C(=O)NC(c1ccccc1)c1ccccc1)C(=O)OC(C)(C)C | – | active: 2.51 µM
31 | FC(F)(F)c1cccc(-n2cc(-c3ccccc3)[nH]c2=S)c1 | – | active: 2.82 µM
32 | CCSc1nnc(NC(=O)c2cccc(S(=O)(=O)N(C)c3ccc(C)cc3)c2)s1 | – | active: 15.8 µM
33 | O=C(Nc1cccc(Cl)c1)N1CCN2C(=O)c3ccccc3C12c1ccccc1 (configuration not stated) | – | inconclusive: 14.1 µM [activator, single point]
34 | CCOC(=O)Cc1csc(NC(=O)c2ccc(Br)cc2)n1 | – | inconclusive: 35.5 µM [inhibitor, single point]
35 | CC(=O)c1ccc(N2CCN(c3ccccc3O)CC2)c([N+](=O)[O-])c1 | – | inconclusive: 35.5 µM [inhibitor, single point]
36 | COc1ccc(NC(=O)c2cccc(NC(=O)c3ccccc3)c2)cc1 | – | inconclusive: 6.31 µM [activator, full curve]
37 | O=C(N/N=C/c1cc2c(cc1Br)OCO2)c1c[nH]c2ccccc12 | – | inconclusive: 20 µM [activator, partial curve]
38 | O=C(O)c1ccccc1Nc1ccccc1 | inactive: 38.2% | –
39 | Cc1ccnc2nc(C(=O)Nc3ccc4c(c3)OCO4)nn12 | – | inconclusive: 15.8 µM [inhibitor, single point]
40 | Cc1ccccc1CN1N=C(/C=C/c2ccccc2)CCC1=O | inactive: 35.4% | –
41 | COc1ccc(O)c(/C=N/NC(=O)CCC(=O)Nc2ccc(F)cc2)c1 | – | active: 11.2 µM
42 | NC(=O)NC(=O)CSc1nc2cc([N+](=O)[O-])ccc2n1-c1cccc(C(F)(F)F)c1 | – | inconclusive: 6.31 µM [inhibitor, full curve, poor fit]
43 | O=C(c1ccccc1-c1nc(-c2ccc(F)cc2)no1)N1CCCC1 | – | inconclusive: 31.6 µM [inhibitor, single point]
44 | N#Cc1nc(Cc2ccccc2)oc1N1CCC(C(N)=O)CC1 | inactive: -5.88% | –
45 | COc1ccccc1NC(=S)N(Cc1cccnc1)Cc1ccco1 | – | inconclusive: 35.5 µM [inhibitor, single point]
46 | COCC(C)n1c(SCC(=O)c2cc(C)n(C)c2C)nc2ccccc2c1=O (configuration not stated) | – | inconclusive: 15.8 µM [inhibitor, single point]
47 | Cc1cccc(NC(=O)NNC(=O)CCc2ccccc2)c1 | – | inconclusive: 28.2 µM [inhibitor, single point]
48 | Cc1sc(NC(=O)COc2ccccc2)c(C#N)c1C | inactive: 4.75% | –

Row | SMILES | activity change, negative = inhibition | Potency
49 | CCOC(=O)C1CCN(C2=C(NS(=O)(=O)c3ccc(Br)cc3)C(=O)c3ccccc3C2=O)CC1 | inactive: -3.64% | –
50 | COc1c(O)cc2c(-c3ccccc3)cc(=O)oc2c1OC | – | inconclusive: 11.2 µM [activator, single point]
51 | CC(C)c1ccc(NC(=O)C(c2ccccc2)N(Cc2ccco2)C(=O)CC2NC(=O)NC2=O)cc1 (configuration not stated) | – | inconclusive: 10 µM [activator, partial curve]
52 | CCCC1OC2CC3C4CCC5=CC(=O)C=CC5(C)C4C(O)CC3(C)C2(C(=O)O)O1 (configuration not stated) | – | active: 14.1 µM
53 | O=[N+]([O-])c1ccc(C[n+]2cc(-c3ccc(Cl)c(Cl)c3)n3c2CCCCC3)cc1 | – | active: 0.251 µM
54 | COc1ccc(NC(=O)NNC(=O)COc2ccc3cc(Br)ccc3c2)c(OC)c1 | inactive: 14.5% | –
55 | COc1cccc(NC(=O)c2ccc(C(=O)c3ccccc3)o2)c1 | – | inconclusive: 22.4 µM [activator, single point]
56 | COc1ccc(CNC(=O)COc2ccc(C(=O)c3ccc(F)cc3)cc2)cc1 | inactive: 7.6% | –
57 | O=C(NCc1ccco1)C1CC2CCC1C2 (configuration not stated) | inactive: -0.537% | –
58 | CCCn1nnnc1-c1ccc(Cl)cc1 | – | inconclusive: 17.8 µM [activator, single point]
59 | COc1ccc(C2CC(c3ccc(OC)cc3)n3nc(NC(=O)c4cccs4)nc3N2)cc1 (configuration not stated) | – | active: 5.01 µM
60 | Cc1ccccc1OCc1nc2ccccc2c(=O)n1/N=C/c1c[nH]c2ccccc12 | – | inconclusive: 35.5 µM [activator, single point]
61 | Cc1sc2ncnc(N/N=C/c3cccc(O)c3)c2c1C | – | inconclusive: 14.1 µM [inhibitor, single point]
62 | O=C1CCCC/C1=C/Nc1cccc(C(F)(F)F)c1 | – | inconclusive: 12.6 µM [activator, partial curve]
63 | O=C1C2C3C=CC(C3=C3CCCCC3)C2C(=O)N1Cc1ccccc1 (configuration not stated) | – | inconclusive: 17.8 µM [inhibitor, single point]
64 | CCOc1ccc(-c2[nH]ncc2-c2csc(C)n2)c(O)c1 | – | inconclusive: 10 µM [inhibitor, partial curve, poor fit]
65 | COc1cccc(-c2csc(N3CCN(C(=S)Nc4cccc(C)c4)CC3)n2)c1 | – | active: 7.08 µM
66 | CC1CCN(S(=O)(=O)c2cccc(C(=O)NC3CCCC3)c2)CC1 | – | inconclusive: 12.6 µM [activator, partial curve]
67 | Cc1nn(Cc2ccccc2Cl)c2sc(C(=O)OC3CCCC3=O)cc12 (configuration not stated) | – | inconclusive: 22.4 µM [activator, partial curve]
68 | O=C(COc1ccc(Cl)cc1)NN=C1CCCCCCC1 | – | active: 8.91 µM
69 | CCOC(=O)c1nc2cc3n(c(CC(C)C)c-2c1C)CC(C)=C3C | – | inconclusive: 6.31 µM [activator, single point]
70 | Cc1nn2c(NCCCn3ccnc3)cc(C(C)C)nc2c1-c1ccccc1 | – | inconclusive: 14.1 µM [inhibitor, single point]
71 | Cc1nn(CC(=O)NC(C)c2ccccc2)c(=O)c2ccccc12 (configuration not stated) | inactive: 5.97% | –
72 | CC1=C(SCCC#N)S/C(=C2\SC(C)=C(SCCC#N)S2)S1 | – | inconclusive: 35.5 µM [inhibitor, single point]

Reference: PubChem BioAssay AID2551 (National Center for Advancing Translational Sciences (NCATS), 2010)
